These are yes or no findings as the source states them, for the method shown. Binding calls can cover weak binding; strength is not graded here.
Columns and labels:
[1] = target: StYeeD(L45A) region of the StYeeE(C22A)-StYeeD(L45A) fusion protein (Spirochaeta thermophila) (UniProt G0GAP7); test: crystal structure; StYeeE(C22A) and StYeeD (or StYeeD(L45A)) joined on one chain by a 40-residue linker; lipidic cubic phase (monoolein), 20°C; X-ray, SPring-8 BL32XU; both purified
[2] = target: StYeeD region of the StYeeE(C22A)-StYeeD fusion protein (Spirochaeta thermophila) (UniProt G0GAP7); test: as above

By UniProt entry, the sequences of proteins in these tests, tags left out. Where a name states a change or a piece, a line headed by the entry shows the natural chain unless it says otherwise.
UniProt G0GAP6: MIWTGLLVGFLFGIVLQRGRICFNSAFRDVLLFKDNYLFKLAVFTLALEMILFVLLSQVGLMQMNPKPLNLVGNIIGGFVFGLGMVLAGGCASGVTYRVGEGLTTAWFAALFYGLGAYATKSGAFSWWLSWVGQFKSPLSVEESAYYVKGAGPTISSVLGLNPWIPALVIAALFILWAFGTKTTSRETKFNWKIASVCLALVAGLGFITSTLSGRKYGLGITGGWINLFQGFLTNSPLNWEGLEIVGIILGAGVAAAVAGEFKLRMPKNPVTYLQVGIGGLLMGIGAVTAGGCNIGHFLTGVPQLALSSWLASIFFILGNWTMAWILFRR

binding [1]: binds
binding [2]: binds
Substance: StYeeE(C22A) region of the StYeeE(C22A)-StYeeD fusion proteins (from UniProt G0GAP6 1-330) (domain or fragment)

From article PMC11073785, “YeeD is an essential partner for YeeE-mediated thiosulfate uptake in bacteria and regulates thiosulfate ion decomposition” (PLOS Biology, 2024)
